# Among all 300,000 compounds or so, about 3,700 (1.2%) were called active. Inconclusive means that the source gave no clear call. Such entries were picked first, then a sample of the others. Calls come from the whole dose curve; tested in HEK293 cells. A potency beside an inconclusive call is a rough fit, not a confirmed value.
# Experiment: qHTS for Inhibitors of binding or entry into cells for Lassa Virus; note: nearly all actives have a fitted effect of over 50% in size
# Details: Lassa virus pseudotype entry inhibition, cell reporter; series mostly up to 37.9 µM
# Potency is the fitted concentration of half-maximal effect.
row,Structure (SMILES),Potency
1,CS(=O)(=O)Nc1ccc(C2=NN(C(=O)c3ccco3)C(c3ccccc3)C2)cc1 (stereo unspecified),"inconclusive: 16.4 µM [inhibitor, partial curve, poor fit]"
2,COc1cccc(NC(=O)CN(C)C(=O)/C=C/c2cn(-c3ccccc3)nc2-c2cccs2)c1,"inconclusive: 35.5 µM [inhibitor, single point]"
3,COc1ccc(-c2ccccc2)cc1NC(=O)c1cccs1,inactive
4,CCC(c1nnnn1Cc1ccccc1)N(Cc1ccco1)Cc1cc2cc(OC)ccc2[nH]c1=O (stereo unspecified),"inconclusive: 10 µM [inhibitor, partial curve, poor fit]"
5,CCn1c(C)nc2c(=O)oc3ccccc3c21,"inconclusive: 20.6 µM [activator, single point]"
6,CCc1ccc(NC(=O)CCS(=O)(=O)c2ccc3c(c2)n(C)c(=O)c(=O)n3C)cc1,inactive
7,Cc1ccc(/C=C/c2nc3ccccc3[nH]2)cc1,active: 2.24 µM
8,CCOc1cc2c(cc1O)C(=NOC)CC1C2CCC2(C)C(O)CCC12 (stereo unspecified),"inconclusive: 0.631 µM [inhibitor, full curve]"
9,Cc1cc(C)nc(N2CCC(C(=O)NCc3ccccc3F)CC2)n1,inactive
10,COc1ccc(NC(=O)CSc2ncccc2C(=O)OC(C)C)cc1OC,"inconclusive: 32.6 µM [inhibitor, partial curve, poor fit]"
11,Cc1cc(Cl)c(OCCOCCN2CCC(C)CC2)c(Br)c1,"inconclusive: 29.1 µM [inhibitor, single point]"
12,Cc1ccc(-c2nnc(Nc3ccc(O)cc3)c3ccccc23)cc1S(=O)(=O)N1CCOCC1,"inconclusive: 35.5 µM [inhibitor, partial curve, poor fit]"
13,CN(C)CCNC(=S)Nc1ccc(F)c(F)c1F,"inconclusive: 6.31 µM [activator, partial curve]"
14,CCOC(=O)CNC(=O)CSc1ncnc2c1cnn2-c1ccc(Cl)cc1,inactive
15,CN(C)S(=O)(=O)c1ccc2[nH]cc(/C=C/c3nc4ccccc4c(=O)n3-c3ccccc3)c2c1,"inconclusive: 1.83 µM [inhibitor, full curve, poor fit]"
16,COc1ccc(-c2cc(C(=O)Nc3c(C)nn(Cc4ccc(C)cc4)c3C)no2)cc1OC,inactive
17,CCc1ccc(NC(=S)N2CCCC(C(F)(F)F)C2)cc1 (stereo unspecified),"inconclusive: 35.5 µM [inhibitor, single point]"
18,CCOC(=O)Cn1c(=O)c2c(nc3n2CCN3c2ccc(CC)cc2)n(C)c1=O,"inconclusive: 35.5 µM [inhibitor, single point]"
19,CNC(=O)CC(C(=O)O)c1ccc(OCC(C)C)cc1 (stereo unspecified),"inconclusive: 35.5 µM [inhibitor, single point]"
20,CCCNC(=O)NC(=O)CN1C(=O)NC(C)(c2ccc3ccccc3c2)C1=O (stereo unspecified),"inconclusive: 6.31 µM [inhibitor, single point]"
21,CCOC(=O)/C(=N\Nc1ccccc1[N+](=O)[O-])c1csc(Nc2ccccc2)n1,"inconclusive: 7.94 µM [inhibitor, full curve, poor fit]"

row,Structure (SMILES),Potency
1,CSc1ccc(C(=S)N2CCN(C(c3ccccc3)c3ccccc3)CC2)cc1,"inconclusive: 7.3 µM [inhibitor, partial curve, poor fit]"
2,CCc1ccc(NC(=O)C(CC)n2c(=O)c(C(F)(F)F)nc3ccccc32)cc1 (stereo unspecified),inactive
3,CC(C)OC(=O)c1ccc(COC(=O)c2cccc(-c3nnc(-c4ccccc4)o3)c2)cc1,"inconclusive: 8.91 µM [activator, partial curve, poor fit]"
4,Nc1ccc(-n2nnnc2CN2CCOCC2)cc1,inactive
5,O=C(COc1cccc(C(F)(F)F)c1)Nc1nnc(C2CC2)s1,"inconclusive: 11.2 µM [inhibitor, partial curve, poor fit]"
6,Cc1ccc2c(c1)N=C(c1ccccc1)CC(C(Cl)Cl)=N2,"inconclusive: 35.5 µM [inhibitor, single point]"
7,COc1cc(NS(=O)(=O)c2ccc3[nH]c4c(c3c2)CCCCCC4)cc(OC)c1,"inconclusive: 22.4 µM [inhibitor, single point]"
8,O=c1[nH]c(-c2ccncc2)nc2ccccc12,inactive
9,Cc1cccc(-n2c(C)cc(C(=O)NC3CCCCC3)c2C)c1,"inconclusive: 11.2 µM [inhibitor, partial curve]"
10,COc1cccc2sc(NC(=O)c3ccc(Br)s3)nc12,"inconclusive: 35.5 µM [inhibitor, single point]"
11,COc1ccc(-c2[nH]ncc2CN2CCN(C(=O)c3ccco3)CC2)cc1F,"inconclusive: 35.5 µM [inhibitor, single point]"
12,CCCN(C(=O)c1noc2c1COc1ccc(C)cc1-2)c1ccc(Cl)c(Cl)c1,inactive
13,CCOC(=O)c1cc2c(=O)n3ccccc3nc2n(CC(C)C)c1=NC(=O)c1c(-c2c(F)cccc2Cl)noc1C,"inconclusive: 0.0891 µM [inhibitor, full curve, poor fit]"
14,CCOC(=O)c1ccccc1NC(=O)COC(=O)C(CCSC)NC(=O)COc1ccccc1 (stereo unspecified),"inconclusive: 6.31 µM [inhibitor, full curve, poor fit]"
15,COc1cc(NC(=O)CC2C(=O)N(c3cccc(C)c3)C(=O)N2Cc2ccc(F)cc2)cc(OC)c1 (stereo unspecified),"inconclusive: 12.6 µM [inhibitor, partial curve, poor fit]"
16,CCN(CC)CC(O)CCCCCCCCC(=O)OC (stereo unspecified),"inconclusive: 25.1 µM [inhibitor, single point]"
17,Cc1nn2c(c1-c1ccc(Cl)cc1)N=C(c1ccco1)CC2c1ccccc1 (stereo unspecified),"inconclusive: 16.4 µM [inhibitor, single point]"
18,CCOC(=O)c1ccccc1NC(=O)C1CCN(c2ncnc3sc(C)c(C)c23)CC1,inactive
19,COCCNc1sc(S(=O)(=O)c2ccc(C)cc2)nc1S(=O)(=O)c1ccc(C)cc1,"inconclusive: 35.5 µM [inhibitor, single point]"
20,O=C(CN1C(=O)NC(c2ccccc2)(c2ccccc2)C1=O)NCc1ccco1,"inconclusive: 1.26 µM [inhibitor, single point]"

# As a short view, twelve of the compounds above:
row,Structure (SMILES),Potency
3,CC(C)OC(=O)c1ccc(COC(=O)c2cccc(-c3nnc(-c4ccccc4)o3)c2)cc1,"inconclusive: 8.91 µM [activator, partial curve, poor fit]"
4,Nc1ccc(-n2nnnc2CN2CCOCC2)cc1,inactive
5,O=C(COc1cccc(C(F)(F)F)c1)Nc1nnc(C2CC2)s1,"inconclusive: 11.2 µM [inhibitor, partial curve, poor fit]"
6,Cc1ccc2c(c1)N=C(c1ccccc1)CC(C(Cl)Cl)=N2,"inconclusive: 35.5 µM [inhibitor, single point]"
7,COc1cc(NS(=O)(=O)c2ccc3[nH]c4c(c3c2)CCCCCC4)cc(OC)c1,"inconclusive: 22.4 µM [inhibitor, single point]"
8,O=c1[nH]c(-c2ccncc2)nc2ccccc12,inactive
9,Cc1cccc(-n2c(C)cc(C(=O)NC3CCCCC3)c2C)c1,"inconclusive: 11.2 µM [inhibitor, partial curve]"
10,COc1cccc2sc(NC(=O)c3ccc(Br)s3)nc12,"inconclusive: 35.5 µM [inhibitor, single point]"
11,COc1ccc(-c2[nH]ncc2CN2CCN(C(=O)c3ccco3)CC2)cc1F,"inconclusive: 35.5 µM [inhibitor, single point]"
12,CCCN(C(=O)c1noc2c1COc1ccc(C)cc1-2)c1ccc(Cl)c(Cl)c1,inactive
13,CCOC(=O)c1cc2c(=O)n3ccccc3nc2n(CC(C)C)c1=NC(=O)c1c(-c2c(F)cccc2Cl)noc1C,"inconclusive: 0.0891 µM [inhibitor, full curve, poor fit]"
14,CCOC(=O)c1ccccc1NC(=O)COC(=O)C(CCSC)NC(=O)COc1ccccc1 (stereo unspecified),"inconclusive: 6.31 µM [inhibitor, full curve, poor fit]"
